PubChem BioAssay AID1159618, Peter MacCallum Cancer Centre, 2016
Aim: 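Contrast migration regulators of blood versus lymphatic endothelial cells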 (follow-up of hits). System: human HMBEC blood microvascular and HDLEC dermal lymphatic endothelial cells. Knock-down reagent: siRNA pool against human genes, 40 nM. Read-out: 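Automated imaging of scratched monolayers; area filled by migrating cells relative to the mean of mock-transfected wells, averaged over two replicates; nuclei also counted per well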. Direction: migration vs mock, HMBEC and migration vs mock, HDLEC: higher = more migration into the scratch. Active means: 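Called impaired when migration drops below 0.65 of mock in HMBEC, HDLEC or both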. Meaning of the calls: active = migration impaired; inactive = no change.
This is a random part of 153 reagents. Over the whole deposit, 111 (73%) are marked active. 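Migration not corrected for cell number; some knock-downs also lowered nuclei counts, so reduced closure may partly reflect fewer cells.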 Unmarked entries are inactive. Not all columns of the deposit are shown. No sequences are given here. Not stated in the record: the time to read-out.

Depletion of PLPP1 resulted in: cell type with impaired migration no change in either cell type; migration vs mock, HMBEC 1.1; migration vs mock, HDLEC 0.928.
After knock-down of JHY the results were cell type with impaired migration no change in either cell type; migration vs mock, HMBEC 0.712; migration vs mock, HDLEC 0.859.
Knock-down of PPP1CA came out at: cell type with impaired migration impaired only in lymphatic endothelial cells (active); migration vs mock, HMBEC 0.774; migration vs mock, HDLEC 0.623.
Depletion of SETD2 gave: cell type with impaired migration no change in either cell type; migration vs mock, HMBEC 0.939; migration vs mock, HDLEC 0.791.
For GCK, the values are cell type with impaired migration no change in either cell type; migration vs mock, HMBEC 0.944; migration vs mock, HDLEC 0.765.
TMIGD2 gave cell type with impaired migration no change in either cell type; migration vs mock, HMBEC 1.04; migration vs mock, HDLEC 0.858.
With knock-down of STK38, the record shows cell type with impaired migration impaired in both blood and lymphatic cells (active); migration vs mock, HMBEC 0.463; migration vs mock, HDLEC 0.563.
PGBD5 showed cell type with impaired migration no change in either cell type; migration vs mock, HMBEC 0.917; migration vs mock, HDLEC 0.753.
Knock-down of HOXC5 gave: cell type with impaired migration impaired in both blood and lymphatic cells (active); migration vs mock, HMBEC 0.319; migration vs mock, HDLEC -0.164.
For UGT1A7 the deposit lists cell type with impaired migration impaired in both blood and lymphatic cells (active); migration vs mock, HMBEC 0.25; migration vs mock, HDLEC 0.137.
Against UBE2O, the entry reads cell type with impaired migration impaired only in blood endothelial cells (active); migration vs mock, HMBEC 0.497; migration vs mock, HDLEC 0.696.
COPB2 showed cell type with impaired migration impaired in both blood and lymphatic cells (active); migration vs mock, HMBEC 0.48; migration vs mock, HDLEC 0.581.
